Data as given in paper PMC12730940.

Key:
[1] = target: cardiac troponin I (cTnI) (UniProt P19429); assay: lateral flow dual-aptamer sandwich; conditions: 10 mM Tris-HCl, 1% Tween-20, 62.5-2000 ng/mL cTnI, 10 mM Tris-HCl pH 8.0, 1% (v/v) Tween-20, room temperature, 10 min, single-stranded DNA
[2] = target: human serum albumin (HSA) (human) (UniProt P02768); assay: lateral flow dual-aptamer sandwich; conditions: 1 ug/mL, no significant sandwich signal (needs both aptamers), 10 mM Tris-HCl pH 8.0, 1% (v/v) Tween-20, room temperature, 10 min, single-stranded DNA

| Sequence | binding result ([1]; capture of AuNP@Tro4-cTnI, 5' biotin, on streptavidin, label: biotin) | binding result ([2]; 5' biotin, on streptavidin, label: biotin) | binding result ([1]; sandwich with Tro6 at T line, 3' SH C6, on gold nanoparticles, label: AuNP) | binding result ([2]; 3' SH C6, on gold nanoparticles, label: AuNP) |
| --- | --- | --- | --- | --- |
| CGCATGCCAAACGTTGCCTCATAGTTCCCTCCCCGTGTCC [Tro6 (T line)] | binds | no binding | – | – |
| CGTGCAGTACGCCAACCTTTCTCATGCGCTGCCCCTCTTATTTTTTTTTTTTTTTTTTTT [Tro4] | – | – | binds | no binding |

For some of these results: A negative result means that nothing was seen under these conditions. At least one verdict was read from the data and is not stated in words by the source. For some of these results: Construct, isoform or probe ends are uncertain for at least one entry.
